At least one structure is not confirmed: it was looked up by name or label, or the drawing left a doubt. * marks the point of attachment. X1 = CC1(C)C(/C=C/C2=C(Cl)C(=C/C=C3/N(CCCCCC(=O)*)c4ccc5cc(S(=O)(=O)O)ccc5c4C3(C)C)/CCC2)=[N+](CCCS(=O)(=O)[O-])c2ccc(N(CCCS(=O)(=O)O)CCCS(=O)(=O)O)cc21; X2 = CC(C)(C)c1cc(/C=C/C=C2\N(CCCS(=O)(=O)O)c3ccc(S(=O)(=O)O)cc3C2(C)CCCC(=O)CCN2C(=O)CC(*)C2=O)c2ccc(N(CCCS(=O)(=O)[O-])CCCS(=O)(=O)O)cc2[o+]1
Biological target: T1, plasma ADAMTS13 (Homo sapiens, UniProt Q76LX8)
T1 construct: from tissue; host or cells: human plasma or serum (pooled normal plasma, healthy donors, TTP patients)
T1 sequence (Q76LX8 75-1427): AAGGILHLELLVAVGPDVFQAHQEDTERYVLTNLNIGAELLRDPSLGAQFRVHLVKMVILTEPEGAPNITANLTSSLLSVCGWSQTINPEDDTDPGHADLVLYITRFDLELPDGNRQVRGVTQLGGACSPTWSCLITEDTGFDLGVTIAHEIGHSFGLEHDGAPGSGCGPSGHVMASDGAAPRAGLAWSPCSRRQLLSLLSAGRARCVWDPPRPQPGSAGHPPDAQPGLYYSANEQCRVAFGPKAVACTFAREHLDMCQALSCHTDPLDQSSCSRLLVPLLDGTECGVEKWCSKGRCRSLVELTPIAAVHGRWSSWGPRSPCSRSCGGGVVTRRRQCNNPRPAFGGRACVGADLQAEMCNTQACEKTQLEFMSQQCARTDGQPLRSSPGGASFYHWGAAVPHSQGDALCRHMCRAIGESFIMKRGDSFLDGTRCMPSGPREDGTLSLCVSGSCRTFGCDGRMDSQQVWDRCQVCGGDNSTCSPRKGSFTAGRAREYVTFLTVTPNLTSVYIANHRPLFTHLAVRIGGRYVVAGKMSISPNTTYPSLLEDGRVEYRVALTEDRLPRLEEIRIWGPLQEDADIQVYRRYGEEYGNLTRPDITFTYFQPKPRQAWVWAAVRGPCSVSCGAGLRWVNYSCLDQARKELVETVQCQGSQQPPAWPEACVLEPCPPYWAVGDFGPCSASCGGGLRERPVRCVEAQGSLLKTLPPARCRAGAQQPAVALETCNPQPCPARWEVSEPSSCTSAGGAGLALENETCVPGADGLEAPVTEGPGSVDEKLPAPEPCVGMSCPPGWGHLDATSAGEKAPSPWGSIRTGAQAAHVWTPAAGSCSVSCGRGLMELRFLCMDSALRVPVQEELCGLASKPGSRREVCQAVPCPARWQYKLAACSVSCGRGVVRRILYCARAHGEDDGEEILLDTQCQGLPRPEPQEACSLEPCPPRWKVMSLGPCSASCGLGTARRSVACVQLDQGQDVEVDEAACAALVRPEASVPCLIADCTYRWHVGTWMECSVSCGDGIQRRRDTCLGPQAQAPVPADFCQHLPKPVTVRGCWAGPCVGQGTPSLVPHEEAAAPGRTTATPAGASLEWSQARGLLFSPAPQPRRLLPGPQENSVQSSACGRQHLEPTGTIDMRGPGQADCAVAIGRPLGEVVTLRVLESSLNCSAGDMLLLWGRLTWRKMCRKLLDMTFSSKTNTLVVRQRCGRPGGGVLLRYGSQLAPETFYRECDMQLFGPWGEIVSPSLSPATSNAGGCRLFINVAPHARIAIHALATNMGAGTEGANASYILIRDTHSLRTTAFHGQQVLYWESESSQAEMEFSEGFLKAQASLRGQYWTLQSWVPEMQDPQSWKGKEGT
Experiment: Kinetics of FRETS-rVWF71 cleavage by plasma ADAMTS13 (Michaelis-Menten)
Type: biochemical
Conditions: plasma ADAMTS13, 50 mM HEPES pH 7.4, 10 mM CaCl2, 150 mM NaCl, 30° C.
Procedure: In these experiments, FRETS-rVWF71 cleavage by plasma ADAMTS13 (50 μL) was assessed in 200 μL reactions containing 50 mM HEPES, pH 7.4, 10 mM CaCl2, 150 mM NaCl, and 0.05% Tween-20, and varying concentrations of FRETS-rVWF71. The concentration of ADAMTS13 in PNP is ˜1.03 μg/ml (Feys, H. B., et al. J. Thromb. Haemost 4:955-62, 2006), or ˜6 nM for a molecular mass of 170 kDa. For each concentration of substrate, the relationship between product fluorescence and concentration was determined directly by cleaving FRETS-rVWF71 to completion with excess recombinant ADAMTS13 MDTCS (Feys, H. B., et al. J. Thromb. Haemost. 7:2088-95, 2009) and measuring the fluorescence. Control assays contained plasma that was completely deficient in ADAMTS13. The initial velocities (nM/min) as a function of substrate concentration were fitted to the Michealis-Menten equation by nonlinear regression analysis (Prism, GraphPad).
(FIG. 6). […] (Anderson, P. J., et al. J. Biol. Chem. 281:850-7, 2006).

X1-GQAPNLVYMVTGC(X2)PASDEIRRLPGDIQVVPIGVGPNANVQELERIGWPNAPILIQDFETLPREAPDLVLQR [FRETS-rVWF71]
Km: 1.8 µM
